Results published in the supplement of paper PMC11150407.
The whole screen tested about 3,000 compounds, of which about 45 (2%) showed an effect of 50% or more. This is one part of the list.

Tested on: MOLM1 and UCSD/AML1 (averaged)
Test: cell viability relative to DMSO control (POC); higher = less growth inhibition
Conditions: 1 µM; 72 h
Method: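 Primary viability screen in the 3q26 EVI1-high AML cell lines MOLM1 and UCSD/AML1, compounds at 1 uM for 72 h. ATP CellTiter-Glo read-out given as percent viable over DMSO control (POC), averaged over duplicates. This mapping covers the TimTec NDL-3000 natural derivative library, whose compounds are identified by TimTec catalogue codes (ST...).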

Q: With COc1ccc(C(=O)Nc2ccc3nn(-c4ccccc4)nc3c2)cc1OC as the compound, how does the cell viability read?
A: 96.5%

Q: Cc1[nH]c2ccccc2c1CCNC(=O)CCC(=O)c1ccccc1 was tested. Which cell viability did it give?
A: 99.3%

Q: How did the cell viability turn out when COc1cc(CNCc2cccc(OC)c2OC)cc(OC)c1 was run?
A: 96.7%

Q: For O=C(CN1CCc2ccccc2C1)Nc1ccc(Cl)cn1, which cell viability is on record?
A: 100%

Q: Which cell viability does the source give for CCCNC(=O)c1cc(=O)n(CC(=O)Nc2ccc3c(c2)OCO3)c2ccccc12 here?
A: 96.3%

Q: For C=CCOc1ccc(/C=C2\Oc3ccc(C(=O)OC)cc3C2=O)cc1, which cell viability is on record?
A: 99.6%

Q: How did the cell viability turn out when COc1ccc(NC(=O)Cn2c(=O)cc(C(=O)N3CCCCC3)c3ccccc32)c(OC)c1 was run?
A: 102%

Q: With Cn1c(SCC(=O)Nc2ccc(F)cc2)nc2c(=O)[nH]cnc21 as the compound, how does the cell viability read?
A: 106%

Q: How did the cell viability turn out when C=C(C)C1CCC2(C(=O)OC)CCC3(C)C(CCC4C5(C)C/C(=C\c6ccc(Br)cc6)C(=O)C(C)(C)C5CCC43C)C12 (configuration not stated) was run?
A: 106%

Q: For COc1ccc(/C=C/C(=O)c2ccc(O)cc2)cc1COc1ccccc1C1CCCCC1, which cell viability is on record?
A: 98.2%

Q: Which cell viability does the source give for C/C(=C\c1ccccc1)C(=O)O here?
A: 111%

Q: For Cc1ccc(S(=O)(=O)Nc2nc3ccccc3nc2Nc2cccc(/C=C/C(=O)O)c2)cc1, which cell viability is on record?
A: 106%

Q: O=c1cc(-c2ccccc2)oc2c(Cl)cc(Cl)cc12 was tested. Which cell viability did it give?
A: 112%

Q: How did the cell viability turn out when COC(=O)C1=C(C)NC2=C(C(=O)CC(c3ccccc3)C2)C1c1cc(Br)c(O)c(OC)c1 (configuration not stated) was run?
A: 107%

Q: Cc1ccc2c(C)c(-c3ccc(Cl)cc3Cl)c(=O)oc2c1 was tested. Which cell viability did it give?
A: 87.2%

Q: Which cell viability does the source give for COc1ccc(-c2cc(=O)c3cc(C)cc(C)c3o2)cc1OC here?
A: 106%

Q: With COc1ccc(CNC(=O)Cc2c(C)n(C(=O)c3ccc(Cl)cc3)c3ccc(OC)cc23)cc1 as the compound, how does the cell viability read?
A: 98.4%

Q: For CCOc1ccc(-c2nc(CSc3nc4c(=O)[nH]c(C)nc4n3C)c(C)o2)cc1, which cell viability is on record?
A: 107%

Q: With COC(=O)C1=C(C(=O)OC)SC2(S1)C(C(=O)OC)=C(C(=O)OC)SC1=C2c2cc(C)c(C)cc2N(C(=O)c2ccc3c(c2)OCO3)C1(C)C as the compound, how does the cell viability read?
A: 90.2%

Q: Which cell viability does the source give for Cc1ccc(C(=O)Oc2ccc(/C=C3/Oc4ccc(Cl)cc4C3=O)cc2)cc1 here?
A: 102%

Q: For COc1cc(C(=O)NCC23CC4CC(CC(C4)C2)C3)cc(OC)c1OC, which cell viability is on record?
A: 94.8%

Q: With Nc1nc(N)c2nc(-c3ccccc3)c(N)nc2n1 as the compound, how does the cell viability read?
A: 101%

Q: How did the cell viability turn out when C[N+]12CCCCC1C(CN1C(=O)c3ccccc3C1=O)CCC2 (configuration not stated) was run?
A: 96.4%

Q: For COC(=O)COc1ccc(NC(=O)c2cc(OC)c(OC)c(OC)c2)cc1OC, which cell viability is on record?
A: 98.3%

Q: COc1cc(C(=O)Nc2ccccc2C(=O)Nc2ccccc2)cc(OC)c1OC was tested. Which cell viability did it give?
A: 36%

Q: With COC(=O)C1=C(N)Oc2c(oc(CO)cc2=O)C1c1c(Cl)cccc1Cl (configuration not stated) as the compound, how does the cell viability read?
A: 108%

Q: With O=C(CSc1nc2ccccc2c(=O)[nH]1)NCCc1nc2ccccc2[nH]1 as the compound, how does the cell viability read?
A: 104%

Q: How did the cell viability turn out when CSc1ccc(Cl)c(C(=O)NCC2(C)CCCC3(C)c4cc(C(C)C)ccc4CCC23)c1 (configuration not stated) was run?
A: 81.9%

Q: COc1ccccc1C(=O)NCCc1c(C)[nH]c2ccc(OCc3ccccc3)cc12 was tested. Which cell viability did it give?
A: 86%

Q: Which cell viability does the source give for Cc1cccc(C)c1NC(=O)C1(N(CCc2c[nH]c3ccccc23)C(=O)c2ccccc2Cl)CCCCC1 here?
A: 97.7%

Q: For COC(=O)c1ccc2c(c1)C(=O)/C(=C/c1ccc(OCC(C)C)c(OC)c1)O2, which cell viability is on record?
A: 109%

Q: How did the cell viability turn out when O=C(N[C@@H](CO)C(=O)OCc1ccccc1)OCc1ccccc1 was run?
A: 92.2%

Q: COc1ccc(/C=C/C(=O)c2ccc3c(c2)OCO3)cc1OC was tested. Which cell viability did it give?
A: 94.4%

Q: How did the cell viability turn out when Cn1c(=O)c2[nH]c(I)nc2n(C)c1=O was run?
A: 95.4%

Q: With O=c1oc2cc(O)ccc2cc1-c1ccccc1Cl as the compound, how does the cell viability read?
A: 102%

Q: With CC(=O)NC(Cc1c[nH]c2ccccc12)C(=O)NCCc1ccccc1 (configuration not stated) as the compound, how does the cell viability read?
A: 105%

Q: O=C(Cn1c(=O)cc(C(=O)N2CCCCC2)c2ccccc21)Nc1ccc(F)cc1F was tested. Which cell viability did it give?
A: 105%

Q: How did the cell viability turn out when N#Cc1cc2c(N)c(C(=O)NCCc3c[nH]c4ccccc34)sc2nc1N was run?
A: 97.7%

Q: COc1ccccc1NC(=O)CSc1nc2nc(C)cc(C)c2c(=O)[nH]1 was tested. Which cell viability did it give?
A: 99.8%

Q: Which cell viability does the source give for CCN(CC)C(=O)c1ccc(OCc2ccc3nsnc3c2)c(OC)c1 here?
A: 110%

Q: COc1cc(C(=O)N2CCN(Cc3ccc(Cl)cc3)CC2)cc(OC)c1OC was tested. Which cell viability did it give?
A: 88.6%

Q: For Cc1ccc(C)c(-c2nc(CSc3nc4c(=O)[nH]cnc4n3C)c(C)o2)c1, which cell viability is on record?
A: 103%

Q: With Cc1ccc(-c2nn(CC(=O)NCCc3c(C)n(C)c4ccccc34)c(=O)c3ccccc23)cc1S(=O)(=O)N1CCCCC1 as the compound, how does the cell viability read?
A: 104%

Q: CC(=O)c1ccc(NC(=O)CSc2nc3c(=O)[nH]cnc3n2C)cc1 was tested. Which cell viability did it give?
A: 110%

Q: How did the cell viability turn out when NS(=O)(=O)c1ccc(NC(=O)CN2CCc3ccccc3C2)cc1 was run?
A: 94.4%

Q: With CC(C)C(=O)NCC(=O)NCC(=O)O as the compound, how does the cell viability read?
A: 98.8%

Q: With O=C(Cn1c(=O)cc(C(=O)N2CCCCC2)c2ccccc21)Nc1ccc2c(c1)OCCO2 as the compound, how does the cell viability read?
A: 103%

Q: With O=C(Cc1cccc(Cl)c1)c1c(O)cc(O)cc1O as the compound, how does the cell viability read?
A: 99.4%

Q: For COc1ccc(C2c3[nH]c4ccccc4c3CCN2C(=O)/C=C/c2ccccc2)cc1 (configuration not stated), which cell viability is on record?
A: 87.7%

Q: For COc1cc(OC)c(C(=O)/C=C/c2ccccc2)c(OC)c1, which cell viability is on record?
A: 33%

Q: COc1cc(C(=O)Nc2ccc3c(c2)ncn3C)cc(OC)c1OC was tested. Which cell viability did it give?
A: 19%

Q: With COc1ccc(C(=O)Nc2ccccc2C(=O)NC(Cc2c[nH]c3ccccc23)C(=O)O)cc1 (configuration not stated) as the compound, how does the cell viability read?
A: 95.5%

Q: For CCOC(=O)C(Cc1c[nH]c2ccccc12)NS(=O)(=O)c1ccc(OC)c(-n2cnnn2)c1 (configuration not stated), which cell viability is on record?
A: 105%

Q: For NC(C/C=C/CC(N)C(=O)O)C(=O)O (configuration not stated), which cell viability is on record?
A: 95.8%

Q: CN(Cc1cnc2nc(N)nc(N)c2n1)c1ccc(C(=O)NC(CCC(=O)O)C(=O)O)cc1 (configuration not stated) was tested. Which cell viability did it give?
A: 102%

Q: With Cc1nc2ccccc2c(C(=O)O)c1C(=O)O as the compound, how does the cell viability read?
A: 104%

Q: For CO[C@H]1[C@@H](OC(C)=O)[C@H](C)[C@H](O)[C@H](C)C(O)[C@@H](C)/C=C/C=C(/C)C(=O)Nc2c(C=NN3CCN(C)CC3)c(O)c3c4c(cc(O)c3c2O)O[C@](C)(O/C=C/[C@@H]1OC)C4=O (some centres not stated), which cell viability is on record?
A: 87.3%

Q: How did the cell viability turn out when CCCNC(=O)c1cc(=O)n(CC(=O)Nc2ccc(C)c(F)c2)c2ccccc12 was run?
A: 84.2%

Q: CC(=O)N1N=C(c2c(-c3ccccc3)c3cc(Br)ccc3[nH]c2=O)CC1c1cccc([N+](=O)[O-])c1 (configuration not stated) was tested. Which cell viability did it give?
A: 83.2%

Q: How did the cell viability turn out when O=C(NCCCCCCNC(=O)c1ccc2c(c1)OCCOCCOCCO2)c1ccc2c(c1)OCCOCCOCCO2 was run?
A: 96.3%

Q: Which cell viability does the source give for COc1ccc(C(=O)N2CCn3cccc3C2c2ccccc2)cc1OC (configuration not stated) here?
A: 113%

Q: With CCCCc1c(O)c2cc(C(=O)OCC)ccc2[nH]c1=O as the compound, how does the cell viability read?
A: 97.7%
